From patent publication US10858410B2, “Glycosylated peptides with pseudoproline residues and having enhanced half-lives and ability to cross the blood brain barrier” (ARIZONA BOARD OF REGENTS ON BEHALF OF THE UNIVERSITY OF …, priority 2015, dated 2020)

Target: T1, human PAC1 receptors (Homo sapiens, UniProt P41586)
T1 construct: host or cells: CHO (clonal line PAC1-CHO)
T1 sequence (P41586 21-468): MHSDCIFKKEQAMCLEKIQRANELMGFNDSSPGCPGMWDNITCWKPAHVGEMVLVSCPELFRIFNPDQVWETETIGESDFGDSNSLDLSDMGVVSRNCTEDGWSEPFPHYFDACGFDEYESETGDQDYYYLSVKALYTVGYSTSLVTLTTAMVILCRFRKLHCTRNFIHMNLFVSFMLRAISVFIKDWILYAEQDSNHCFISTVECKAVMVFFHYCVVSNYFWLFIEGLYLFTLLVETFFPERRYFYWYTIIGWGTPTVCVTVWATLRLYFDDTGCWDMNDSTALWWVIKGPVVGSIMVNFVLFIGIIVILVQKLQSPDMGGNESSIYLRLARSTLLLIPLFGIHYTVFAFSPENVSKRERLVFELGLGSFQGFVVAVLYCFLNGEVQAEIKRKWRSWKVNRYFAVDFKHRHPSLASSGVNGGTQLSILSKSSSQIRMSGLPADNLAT
Experiment: FLIPR calcium flux, agonist mode, PAC1-CHO cells
Type: cell-based

CC[C@H](C)[C@H](NC(=O)CNC(=O)[C@H](CC(=O)O)NC(=O)[C@H](CO)NC(=O)[C@@H](N)Cc1c[nH]cn1)C(=O)N[C@@H](Cc1ccccc1)C(=O)N[C@H](C(=O)N[C@@H](CC(=O)O)C(=O)N[C@@H](CO)C(=O)N[C@@H](Cc1ccc(O)cc1)C(=O)N[C@@H](CO)C(=O)N[C@@H](CCCNC(=N)N)C(=O)N[C@@H](Cc1ccc(O)cc1)C(=O)N[C@@H](CCCNC(=N)N)C(=O)N[C@@H](CCCCN)C(=O)N[C@@H](CCC(N)=O)C(=O)N[C@@H](CCSC)C(=O)N[C@@H](C)C(=O)N[C@H](C(=O)N[C@@H](CCCCN)C(=O)N[C@@H](CCCCN)C(=O)N[C@@H](Cc1ccc(O)cc1)C(=O)N[C@@H](CC(C)C)C(=O)N[C@@H](C)C(=O)N[C@@H](C)C(=O)N[C@H](C(=O)N[C@@H](CO[C@@H]1O[C@H](CO)[C@@H](O)[C@H](O)[C@H]1O)C(N)=O)C(C)C)C(C)C)[C@@H](C)O [PACAP1-27-S-G]
agonist activity at PAC1 (in words): potent, efficacious agonist activity
